Laboratory results: PubChem BioAssay AID624297 (National Center for Advancing Translational Sciences (NCATS), 2012)
The entries are a selection whose mix differs from that of the whole data set. Records with an inconclusive call do not appear. Active and inactive are the calls of the source. Calls follow the shape of the dose curve; as a rule, active = well fitted activation curve with a large enough effect; inconclusive = small, poorly fitted or top-dose-only effect; inactive = no such curve, though single readings can be large or run the other way.
Potency is read from the fitted curve at half-maximal effect.

Assay: A quantitative high throughput screen for small molecules that induce DNA re-replication in SW480 colon adenocarcinoma cells. Also: nearly all actives have a fitted effect of over 55% in size.
Conditions: Hoechst DNA content imaging, 48 h
Text: H Molecular Libraries Probe Production Network [MLPCN] NIH Chemical Genomics Center [NCGC] MLPCN Grant: Fast Track K99 CA136555 Assay Provider: Melvin DePamphilis, NICHD, NIH Assay Overview Eukaryotic cells normally restrict genome duplication to once per cell division. When this process is aberrant, DNA re-replication occurs when cells reinitiate DNA replication before the first round of replication is complete. DNA re-replication induces the DNA damage response, arrests cell proliferation, and triggers apoptosis. The cell cycle components cyclin A, Cdt-1, Cdc6 and geminin are critical regulators of this process and their misregulation results in DNA re-replication in normal and cancer cells. To identify compounds that induce re-replication in normal cells, an image-based assay was used to measure DNA content of nuclei, as detected by the fluorescent DNA binding dye, Hoechst. Cell nuclei were imaged by a fluorescence scanning plate imager and compounds that induce DNA re-replication were identified by the increase of nuclei with elevated fluorescence intensity
For screening, 250 cells in 5 uL/well were dispensed into black clear 1536-well plates (Aurora) using a solenoid-based dispenser. Following transfer of 23 nL compound or DMSO vehicle by a pin tool, the plates were incubated 48 hr at 37 C and 5% CO2. After addition of 1 uL/well Hoescht stain, the plates were incubated 40 min at 37 C, 5% CO2 and total intensity of fluorescent objects (nuclei) were enumerated by an Acumen Explorer Ex3 (TTP LabTech) fluorescence scanning plate imager (405 nm excitation, 500-530 nm emission). Keywords: NIH Roadmap, MLPCN, MLI, MLSMR, qHTS, NCGC, DNA replication, cancer
In the case of `COc1c(O)cc2c(c1OC)-c1ccc(OC)c(=O)cc1C(NC(C)=O)CC2` (stereo not drawn), the Potency is reported as active: 231 nM.
With `COc1cc2c(c(OC)c1OC)-c1ccc(SC)c(=O)cc1C(NC(C)=O)CC2` (stereo not drawn) the Potency was active: 13 nM.
For `COc1c(O)cc2c(c1OC)-c1ccc(SC)c(=O)cc1C(NC(C)=O)CC2` (stereo not drawn), the Potency was active: 25.9 nM.
